Experimental data as given in the supplement of paper PMC10849652.
The list shows a part of the results.

Amino acid sequences for entries named in this document (tags omitted). A change or cut given only in a name is not applied to a line headed by its entry.
UniProt Q9BTL3: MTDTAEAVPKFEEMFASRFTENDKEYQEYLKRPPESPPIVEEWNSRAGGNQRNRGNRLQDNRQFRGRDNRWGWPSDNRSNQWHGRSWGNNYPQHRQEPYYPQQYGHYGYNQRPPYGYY
UniProt O60216: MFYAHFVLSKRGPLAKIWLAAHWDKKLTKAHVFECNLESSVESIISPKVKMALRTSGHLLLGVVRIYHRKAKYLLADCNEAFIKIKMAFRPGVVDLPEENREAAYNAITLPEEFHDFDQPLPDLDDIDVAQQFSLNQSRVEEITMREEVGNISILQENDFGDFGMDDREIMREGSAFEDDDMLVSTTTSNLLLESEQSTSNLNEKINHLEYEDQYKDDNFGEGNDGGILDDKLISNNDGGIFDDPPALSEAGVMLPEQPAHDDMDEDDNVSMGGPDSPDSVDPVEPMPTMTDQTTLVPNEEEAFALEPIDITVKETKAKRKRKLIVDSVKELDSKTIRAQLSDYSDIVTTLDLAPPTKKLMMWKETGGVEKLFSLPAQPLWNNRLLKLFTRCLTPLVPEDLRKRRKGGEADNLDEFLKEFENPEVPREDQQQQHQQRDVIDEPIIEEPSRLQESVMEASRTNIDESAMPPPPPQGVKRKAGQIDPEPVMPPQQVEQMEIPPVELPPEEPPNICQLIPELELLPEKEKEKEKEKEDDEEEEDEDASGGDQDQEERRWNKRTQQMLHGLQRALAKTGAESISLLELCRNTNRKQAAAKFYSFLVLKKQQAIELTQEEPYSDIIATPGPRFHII
UniProt Q16576, whole entry, looked up: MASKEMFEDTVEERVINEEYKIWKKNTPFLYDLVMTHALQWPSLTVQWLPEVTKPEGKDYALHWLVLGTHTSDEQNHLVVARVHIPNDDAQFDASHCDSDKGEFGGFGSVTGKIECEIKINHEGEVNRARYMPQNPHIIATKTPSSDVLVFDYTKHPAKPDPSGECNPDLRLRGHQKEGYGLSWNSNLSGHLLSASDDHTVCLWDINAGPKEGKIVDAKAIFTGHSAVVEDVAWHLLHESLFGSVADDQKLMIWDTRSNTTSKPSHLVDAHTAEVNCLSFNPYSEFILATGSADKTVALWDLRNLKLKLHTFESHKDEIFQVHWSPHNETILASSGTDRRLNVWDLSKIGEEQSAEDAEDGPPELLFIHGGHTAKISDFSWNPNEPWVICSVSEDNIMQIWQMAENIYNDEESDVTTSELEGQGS
UniProt P51159: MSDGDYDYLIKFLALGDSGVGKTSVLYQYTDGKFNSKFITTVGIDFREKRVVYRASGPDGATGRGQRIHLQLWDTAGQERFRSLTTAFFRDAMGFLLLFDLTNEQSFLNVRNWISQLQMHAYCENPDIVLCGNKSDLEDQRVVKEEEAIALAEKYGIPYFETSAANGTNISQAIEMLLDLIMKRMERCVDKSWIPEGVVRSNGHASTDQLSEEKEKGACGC
UniProt Q96I25: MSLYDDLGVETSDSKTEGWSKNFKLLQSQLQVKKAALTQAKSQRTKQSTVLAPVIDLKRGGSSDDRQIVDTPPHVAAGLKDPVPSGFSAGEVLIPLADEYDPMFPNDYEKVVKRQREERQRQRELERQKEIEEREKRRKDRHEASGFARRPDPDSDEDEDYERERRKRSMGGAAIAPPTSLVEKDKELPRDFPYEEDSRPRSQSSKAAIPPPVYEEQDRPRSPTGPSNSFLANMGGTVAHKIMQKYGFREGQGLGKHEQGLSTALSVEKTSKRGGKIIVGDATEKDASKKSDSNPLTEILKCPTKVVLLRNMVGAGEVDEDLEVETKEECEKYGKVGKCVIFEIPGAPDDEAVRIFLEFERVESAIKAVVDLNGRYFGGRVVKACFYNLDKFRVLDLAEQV
UniProt P61019: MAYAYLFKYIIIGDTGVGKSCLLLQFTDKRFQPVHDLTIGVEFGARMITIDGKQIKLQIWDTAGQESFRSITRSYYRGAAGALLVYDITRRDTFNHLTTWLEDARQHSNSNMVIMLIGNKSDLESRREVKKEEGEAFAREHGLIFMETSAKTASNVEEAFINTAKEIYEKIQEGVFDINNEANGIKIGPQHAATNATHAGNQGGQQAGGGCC
UniProt P54727: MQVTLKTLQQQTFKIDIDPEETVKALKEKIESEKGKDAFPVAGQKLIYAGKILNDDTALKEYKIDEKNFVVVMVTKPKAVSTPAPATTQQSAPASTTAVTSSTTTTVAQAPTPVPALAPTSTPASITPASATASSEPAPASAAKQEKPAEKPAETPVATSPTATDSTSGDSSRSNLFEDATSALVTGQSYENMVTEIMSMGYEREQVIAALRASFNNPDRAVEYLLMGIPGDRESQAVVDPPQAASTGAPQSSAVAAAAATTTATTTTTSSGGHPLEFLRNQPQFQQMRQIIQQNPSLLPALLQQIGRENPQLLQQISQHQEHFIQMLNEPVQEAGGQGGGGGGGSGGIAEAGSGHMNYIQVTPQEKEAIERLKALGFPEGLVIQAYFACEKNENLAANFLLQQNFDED
UniProt Q53S08: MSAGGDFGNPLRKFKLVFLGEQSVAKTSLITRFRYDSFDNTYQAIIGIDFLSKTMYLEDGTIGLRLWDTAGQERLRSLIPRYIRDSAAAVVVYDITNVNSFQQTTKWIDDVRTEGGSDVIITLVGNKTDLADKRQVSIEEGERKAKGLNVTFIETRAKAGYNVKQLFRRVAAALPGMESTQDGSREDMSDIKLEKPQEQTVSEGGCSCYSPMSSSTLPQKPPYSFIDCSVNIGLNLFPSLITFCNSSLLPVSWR
UniProt Q7Z6E9: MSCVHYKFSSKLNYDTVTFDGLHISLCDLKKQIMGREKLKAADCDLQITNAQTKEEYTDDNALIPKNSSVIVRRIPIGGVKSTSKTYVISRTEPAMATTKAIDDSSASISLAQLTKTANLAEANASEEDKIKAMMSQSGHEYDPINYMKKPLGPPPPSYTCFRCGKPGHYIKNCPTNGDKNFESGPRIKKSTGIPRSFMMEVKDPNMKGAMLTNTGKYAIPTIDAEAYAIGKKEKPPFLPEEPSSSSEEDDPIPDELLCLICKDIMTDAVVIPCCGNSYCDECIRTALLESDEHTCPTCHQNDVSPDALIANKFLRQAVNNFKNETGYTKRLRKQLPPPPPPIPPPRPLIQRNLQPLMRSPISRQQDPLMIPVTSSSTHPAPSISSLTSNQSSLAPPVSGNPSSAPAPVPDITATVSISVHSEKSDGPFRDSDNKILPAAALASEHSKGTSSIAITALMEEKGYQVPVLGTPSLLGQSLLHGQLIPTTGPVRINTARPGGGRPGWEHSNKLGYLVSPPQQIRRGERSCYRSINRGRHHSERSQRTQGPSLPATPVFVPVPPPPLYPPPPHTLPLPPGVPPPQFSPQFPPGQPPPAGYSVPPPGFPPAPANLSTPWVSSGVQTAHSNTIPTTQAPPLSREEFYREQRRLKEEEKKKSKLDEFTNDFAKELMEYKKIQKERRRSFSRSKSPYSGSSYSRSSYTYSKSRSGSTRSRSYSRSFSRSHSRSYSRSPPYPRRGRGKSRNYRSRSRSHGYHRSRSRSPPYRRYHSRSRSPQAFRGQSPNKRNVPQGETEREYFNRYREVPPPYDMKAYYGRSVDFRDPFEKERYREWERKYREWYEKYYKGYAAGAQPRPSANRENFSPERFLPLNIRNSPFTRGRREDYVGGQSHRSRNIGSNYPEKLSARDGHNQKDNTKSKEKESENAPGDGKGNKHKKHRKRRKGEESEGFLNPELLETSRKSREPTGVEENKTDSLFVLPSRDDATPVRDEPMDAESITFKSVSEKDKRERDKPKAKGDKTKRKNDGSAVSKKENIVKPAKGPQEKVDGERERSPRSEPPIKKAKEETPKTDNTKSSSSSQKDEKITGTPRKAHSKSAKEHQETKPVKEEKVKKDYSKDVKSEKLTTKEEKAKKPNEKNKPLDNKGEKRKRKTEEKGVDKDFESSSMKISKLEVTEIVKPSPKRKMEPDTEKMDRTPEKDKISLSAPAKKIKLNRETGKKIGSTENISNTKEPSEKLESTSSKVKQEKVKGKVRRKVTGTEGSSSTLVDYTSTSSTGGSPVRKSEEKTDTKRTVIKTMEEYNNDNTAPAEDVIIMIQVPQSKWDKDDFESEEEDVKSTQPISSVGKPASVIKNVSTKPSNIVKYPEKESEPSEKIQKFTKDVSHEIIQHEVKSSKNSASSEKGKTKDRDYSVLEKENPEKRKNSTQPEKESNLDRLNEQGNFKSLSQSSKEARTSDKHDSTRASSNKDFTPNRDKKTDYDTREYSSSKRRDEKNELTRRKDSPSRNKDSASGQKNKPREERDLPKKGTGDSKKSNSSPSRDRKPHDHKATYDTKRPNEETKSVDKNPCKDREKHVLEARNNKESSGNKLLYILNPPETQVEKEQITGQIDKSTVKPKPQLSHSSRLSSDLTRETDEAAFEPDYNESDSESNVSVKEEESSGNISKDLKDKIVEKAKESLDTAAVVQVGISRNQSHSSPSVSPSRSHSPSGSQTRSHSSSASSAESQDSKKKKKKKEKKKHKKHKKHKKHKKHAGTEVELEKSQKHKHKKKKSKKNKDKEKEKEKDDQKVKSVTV
UniProt Q5HYI8: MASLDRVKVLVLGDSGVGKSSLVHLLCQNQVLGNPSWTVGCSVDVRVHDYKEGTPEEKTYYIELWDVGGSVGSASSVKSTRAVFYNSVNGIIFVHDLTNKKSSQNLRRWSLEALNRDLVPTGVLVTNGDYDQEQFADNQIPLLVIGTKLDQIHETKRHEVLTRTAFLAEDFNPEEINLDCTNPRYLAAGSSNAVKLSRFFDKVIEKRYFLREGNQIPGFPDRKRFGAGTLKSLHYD
UniProt Q9NRW1: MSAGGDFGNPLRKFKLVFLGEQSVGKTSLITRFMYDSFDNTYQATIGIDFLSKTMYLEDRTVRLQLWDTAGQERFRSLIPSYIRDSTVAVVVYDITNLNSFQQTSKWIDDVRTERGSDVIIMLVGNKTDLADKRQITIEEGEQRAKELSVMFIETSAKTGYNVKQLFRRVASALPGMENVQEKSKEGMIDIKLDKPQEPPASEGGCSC
UniProt Q92878: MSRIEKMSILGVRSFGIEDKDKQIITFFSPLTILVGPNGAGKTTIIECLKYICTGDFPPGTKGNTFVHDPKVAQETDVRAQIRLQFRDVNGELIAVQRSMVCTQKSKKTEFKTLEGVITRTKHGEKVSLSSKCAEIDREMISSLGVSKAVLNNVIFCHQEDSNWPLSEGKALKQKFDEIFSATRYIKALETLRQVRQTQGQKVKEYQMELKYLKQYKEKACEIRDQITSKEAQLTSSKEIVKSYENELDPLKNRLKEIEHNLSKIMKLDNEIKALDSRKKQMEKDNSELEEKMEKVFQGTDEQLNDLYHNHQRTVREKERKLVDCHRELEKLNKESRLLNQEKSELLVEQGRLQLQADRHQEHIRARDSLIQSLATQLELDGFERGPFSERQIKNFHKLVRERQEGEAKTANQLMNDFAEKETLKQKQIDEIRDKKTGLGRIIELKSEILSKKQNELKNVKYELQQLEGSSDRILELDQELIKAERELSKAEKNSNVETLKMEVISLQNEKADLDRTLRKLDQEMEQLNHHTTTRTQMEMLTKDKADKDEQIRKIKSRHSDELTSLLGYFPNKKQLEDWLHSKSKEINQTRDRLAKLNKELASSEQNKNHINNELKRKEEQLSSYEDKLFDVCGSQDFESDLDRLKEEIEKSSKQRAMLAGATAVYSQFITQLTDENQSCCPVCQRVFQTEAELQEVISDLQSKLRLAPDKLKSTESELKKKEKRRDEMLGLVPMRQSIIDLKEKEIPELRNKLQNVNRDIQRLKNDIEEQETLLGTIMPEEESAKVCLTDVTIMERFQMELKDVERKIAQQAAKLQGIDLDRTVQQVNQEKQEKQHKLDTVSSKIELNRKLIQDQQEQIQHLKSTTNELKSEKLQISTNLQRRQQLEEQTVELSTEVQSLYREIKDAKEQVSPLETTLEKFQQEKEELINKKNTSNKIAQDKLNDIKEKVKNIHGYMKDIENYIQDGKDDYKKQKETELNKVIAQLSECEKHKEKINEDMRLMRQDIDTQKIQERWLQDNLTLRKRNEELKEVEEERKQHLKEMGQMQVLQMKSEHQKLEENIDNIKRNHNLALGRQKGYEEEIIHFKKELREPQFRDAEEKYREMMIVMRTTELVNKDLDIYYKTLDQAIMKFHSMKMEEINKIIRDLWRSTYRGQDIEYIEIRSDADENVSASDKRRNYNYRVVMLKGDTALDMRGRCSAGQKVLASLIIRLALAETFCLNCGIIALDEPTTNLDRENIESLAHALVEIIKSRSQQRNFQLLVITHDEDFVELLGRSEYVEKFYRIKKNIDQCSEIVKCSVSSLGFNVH
UniProt Q9NP72: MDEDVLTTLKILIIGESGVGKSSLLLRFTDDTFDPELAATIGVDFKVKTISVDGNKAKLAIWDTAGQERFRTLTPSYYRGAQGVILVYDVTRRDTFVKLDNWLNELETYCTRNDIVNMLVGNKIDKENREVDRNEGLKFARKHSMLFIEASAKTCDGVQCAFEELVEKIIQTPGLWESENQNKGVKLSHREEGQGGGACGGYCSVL
UniProt Q8N0T1: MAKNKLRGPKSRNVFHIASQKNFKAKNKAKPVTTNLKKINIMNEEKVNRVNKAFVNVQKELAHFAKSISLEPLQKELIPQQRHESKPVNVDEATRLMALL

Tests used:
Experiment in all cases: log2 fold change, soluble protein after heating vs DMSO (PISA); higher = thermal stabilisation; K562 cells, 10 uM, 30 min; active = over 0.2 and 3.5 SD of the protein, either way, in both replicates (recomputed)
[1] = compound: C1=CC=C(C=C1)[C@H](COC2=CC3=C(C=C2)NC(=O)N3)NC(=O)C4=CC=CN(C4=O)CC5=CC(=C(C=C5)F)F
In short: (§1)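 Soluble protein was defined as the supernatant after 21,000xg for 90 min. It came from K562 cells at 2×10^6 cells/mL given 10 μM compound for 30 min, heated in aliquots for 3 min across 48°C-58°C, pooled, and extracted in PBS with 0.5% NP-40 at 4°C, and was quantified by TMTpro 16plex LC-MS/MS with equalised channel sums. Thermal stability against control samples, from duplicates, is reported as log2 fold change.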

[2] = compound: CC1=C(SC2=C1C(=N[C@H](C3=NN=C(N32)C)CC(=O)N)C4=CC=C(C=C4)Cl)C
In short: as §1

[3] = compound: CC1=C2C(=CC=C1)N=C(N(C2=O)C3=CC=CC=C3C)CN4C=NC5=C(N=CN=C54)N
In short: as §1

[4] = compound: Cc1sc2c(c1C)C(c1ccc(Cl)cc1)=N[C@@H](CC(=O)OC(C)(C)C)c1nnc(C)n1-2
In short: as §1

[5] = compound: c1ccc([C@@H]2C[C@H]2NC2CCNCC2)cc1
In short: as §1

Measured: log2 fold change

RANBP3 (UniProt Q9H6Z4)
inactive: [1] 0.023 | [2] 0.024 | [3] -0.017 | [4] -0.026 | [5] 0.044

RAPGEF1 isoform 3 (UniProt Q13905)
inactive: [1] -0.188

RAPGEF4 (UniProt Q8WZA2)
inactive: [1] -0.038 | [2] 0.152 | [3] 0.268 | [4] -0.028 | [5] -0.176

RASSF5 (UniProt Q8WWW0)
inactive: [1] 0.02 | [2] -0.007 | [3] 0.132 | [4] 0.069 | [5] 0.015

RAD51 (UniProt Q06609)
inactive: [1] -0.006 | [2] 0.142 | [3] -0.037 | [4] 0 | [5] -0.053

RAMAC (UniProt Q9BTL3)
inactive: [1] 0.078 | [2] -0.115 | [3] -0.012 | [4] 0.021 | [5] 0.081

RAB1A (UniProt P62820)
inactive: [1] -0.008 | [2] 0.015 | [3] -0.009 | [4] -0.022 | [5] -0.002

RAB3C (UniProt Q96E17)
inactive: [1] 0.023 | [2] 0.007 | [3] -0.026 | [4] 0.02 | [5] 0.036

RBM14 (UniProt Q96PK6)
inactive: [1] -0.111 | [2] -0.069 | [3] -0.004 | [4] 0.255 | [5] -0.008

RANBP17 (UniProt Q9H2T7)
inactive: [1] -0.032 | [2] 0.132 | [3] 0.04 | [4] 0.035 | [5] -0.254

RAB8A (UniProt P61006)
inactive: [1] 0.052 | [2] -0.013 | [3] 0.027 | [4] -0.029 | [5] -0.066

RAD21 (UniProt O60216)
inactive: [1] -0.008 | [2] 0.008 | [3] 0.021 | [4] -0.014 | [5] -0.009

RAB2B (UniProt Q8WUD1)
inactive: [1] -0.001 | [2] 0.033 | [3] 0.03 | [4] -0.035 | [5] 0.017

RBBP7 isoform 2 (UniProt Q16576)
inactive: [1] 0.009 | [2] 0.041 | [3] 0.003 | [4] -0.017 | [5] -0.004

RABEPK (UniProt Q7Z6M1)
inactive: [1] -0.007 | [2] 0.033 | [3] -0.018 | [4] -0.031 | [5] 0.033

RAD51D (UniProt O75771)
inactive: [1] -0.162 | [2] 0.244 | [3] 0.193 | [4] -0.222 | [5] -0.189

RAB5C isoform 2 (UniProt P51148)
inactive: [1] -0.007 | [2] -0.009 | [3] -0.022 | [4] 0.011 | [5] 0.018

RAB43 (UniProt Q86YS6)
inactive: [1] 0.039 | [2] 0.062 | [3] 0.209 | [4] 0.011 | [5] -0.027

RAC2 (UniProt P15153)
inactive: [1] -0.037 | [2] -0.001 | [3] -0.028 | [4] 0.017 | [5] 0.017

RALGAPA1 isoform 6 (UniProt Q6GYQ0)
inactive: [1] 0.012 | [2] -0.094 | [3] 0.1 | [4] 0.108 | [5] 0.063

RAD1 (UniProt O60671)
inactive: [1] -0.014 | [2] 0.017 | [3] 0.079 | [4] 0.037 | [5] 0.043

RAB27A (UniProt P51159)
inactive: [1] 0.011 | [2] 0.008 | [3] 0.001 | [4] -0.031 | [5] 0.023

RBM17 (UniProt Q96I25)
inactive: [1] -0.038 | [2] 0.017 | [3] 0.049 | [4] 0.003 | [5] -0.013

14 neighbouring entries from above, for reference:
RAB3C (UniProt Q96E17)
inactive: [1] 0.023 | [2] 0.007 | [3] -0.026 | [4] 0.02 | [5] 0.036

RBM14 (UniProt Q96PK6)
inactive: [1] -0.111 | [2] -0.069 | [3] -0.004 | [4] 0.255 | [5] -0.008

RANBP17 (UniProt Q9H2T7)
inactive: [1] -0.032 | [2] 0.132 | [3] 0.04 | [4] 0.035 | [5] -0.254

RAB8A (UniProt P61006)
inactive: [1] 0.052 | [2] -0.013 | [3] 0.027 | [4] -0.029 | [5] -0.066

RAD21 (UniProt O60216)
inactive: [1] -0.008 | [2] 0.008 | [3] 0.021 | [4] -0.014 | [5] -0.009

RAB2B (UniProt Q8WUD1)
inactive: [1] -0.001 | [2] 0.033 | [3] 0.03 | [4] -0.035 | [5] 0.017

RBBP7 isoform 2 (UniProt Q16576)
inactive: [1] 0.009 | [2] 0.041 | [3] 0.003 | [4] -0.017 | [5] -0.004

RABEPK (UniProt Q7Z6M1)
inactive: [1] -0.007 | [2] 0.033 | [3] -0.018 | [4] -0.031 | [5] 0.033

RAD51D (UniProt O75771)
inactive: [1] -0.162 | [2] 0.244 | [3] 0.193 | [4] -0.222 | [5] -0.189

RAB5C isoform 2 (UniProt P51148)
inactive: [1] -0.007 | [2] -0.009 | [3] -0.022 | [4] 0.011 | [5] 0.018

RAB43 (UniProt Q86YS6)
inactive: [1] 0.039 | [2] 0.062 | [3] 0.209 | [4] 0.011 | [5] -0.027

RAC2 (UniProt P15153)
inactive: [1] -0.037 | [2] -0.001 | [3] -0.028 | [4] 0.017 | [5] 0.017

RALGAPA1 isoform 6 (UniProt Q6GYQ0)
inactive: [1] 0.012 | [2] -0.094 | [3] 0.1 | [4] 0.108 | [5] 0.063

RAD1 (UniProt O60671)
inactive: [1] -0.014 | [2] 0.017 | [3] 0.079 | [4] 0.037 | [5] 0.043

Carrying on:

RAB11FIP1 (UniProt Q6WKZ4)
inactive: [1] 0.041 | [2] 0.071 | [3] 0.086 | [4] -0.006 | [5] 0.046

RANBP2 (UniProt P49792)
inactive: [1] -0.094 | [2] 0 | [3] 0.114 | [4] -0.085 | [5] -0.089

RAPGEF6 isoform 4 (UniProt Q8TEU7)
inactive: [1] -0.026 | [2] 0.091 | [3] -0.008 | [4] 0.283 | [5] -0.159

RAB2A (UniProt P61019)
inactive: [1] 0.004 | [2] -0.044 | [3] 0.055 | [4] -0.02 | [5] 0.056

RAD23B (UniProt P54727)
inactive: [1] 0.016 | [2] -0.002 | [3] -0.008 | [4] 0.027 | [5] -0.008

RAP1GAP isoform 4 (UniProt P47736)
inactive: [1] -0.07 | [2] 0.098 | [3] 0.047 | [4] 0.039 | [5] 0.06

RANBP1 (UniProt P43487)
inactive: [1] -0.048 | [2] -0.009 | [3] -0.036 | [4] 0.011 | [5] -0.008

RAD51C (UniProt O43502)
inactive: [1] -0.032 | [2] 0.133 | [3] 0.064 | [4] 0.015 | [5] -0.065

RB1CC1 (UniProt Q8TDY2)
inactive: [1] 0.198 | [2] 0.096 | [3] 0.032 | [4] 0.029 | [5] -0.063

RAP2B (UniProt P61225)
inactive: [1] 0.001 | [2] 0.003 | [3] 0.027 | [4] 0.028 | [5] 0.037

RACK1 (UniProt D6RF23)
inactive: [1] -0.046 | [2] -0.008 | [3] 0.138 | [4] 0.105 | [5] 0.065

RAB6D (UniProt Q53S08)
inactive: [1] 0.007 | [2] 0.036 | [3] 0.081 | [4] -0.058 | [5] 0.029

RABIF (UniProt P47224)
inactive: [1] 0.045 | [2] 0 | [3] -0.059 | [4] -0.024 | [5] 0.111

RBBP6 (UniProt Q7Z6E9)
inactive: [1] 0.094 | [2] 0.119 | [3] -0.017 | [4] 0.066 | [5] -0.32

RALGPS2 (UniProt Q86X27)
inactive: [1] -0.069 | [2] 0.073 | [3] -0.093 | [4] 0.116 | [5] -0.01

RABL3 (UniProt Q5HYI8)
inactive: [1] 0 | [2] 0.033 | [3] 0.034 | [4] -0.033 | [5] -0.01

RAP1B (UniProt F5GZG1)
inactive: [1] 0.005 | [2] 0.102 | [3] 0.012 | [4] 0.013 | [5] -0.02

RAB6B (UniProt Q9NRW1)
inactive: [1] 0.036 | [2] -0.017 | [3] 0.03 | [4] -0.032 | [5] -0.01

RAD50 isoform 2 (UniProt Q92878)
inactive: [1] -0.006 | [2] 0.017 | [3] 0.061 | [4] 0 | [5] 0.014

RAB3A (UniProt P20336)
inactive: [1] 0 | [2] -0.013 | [3] 0.094 | [4] -0.059 | [5] 0.021

RAB32 (UniProt Q13637)
inactive: [1] -0.058 | [2] 0.016 | [3] -0.037 | [4] -0.053 | [5] -0.005

RAB18 (UniProt Q9NP72)
inactive: [1] 0.034 | [2] -0.03 | [3] 0.001 | [4] -0.003 | [5] 0.036

RAB3D (UniProt O95716)
inactive: [1] 0.023 | [2] -0.105 | [3] 0.007 | [4] -0.082 | [5] 0.201

RALY (UniProt Q9UKM9)
inactive: [1] 0.102 | [2] -0.379 | [3] -0.243 | [4] 0.031 | [5] 0.003

RAB35 (UniProt Q15286)
inactive: [1] 0.022 | [2] 0.003 | [3] -0.011 | [4] 0.014 | [5] 0.045

RABL6 (UniProt Q3YEC7)
inactive: [1] -0.013 | [2] -0.003 | [3] -0.018 | [4] 0.013 | [5] 0.007

RBIS (UniProt Q8N0T1)
inactive: [1] 0.035 | [2] -0.034 | [3] -0.02 | [4] 0.101 | [5] 0

RAB1B (UniProt Q9H0U4)
inactive: [1] -0.034 | [2] 0.009 | [3] 0.017 | [4] 0.01 | [5] 0.031

RACK1 (UniProt D6RHH4)
inactive: [1] 0.069 | [2] -0.039 | [3] 0.319 | [4] 0.03 | [5] -0.067

RBFOX2 isoform 8 (UniProt O43251)
inactive: [1] 0.111 | [2] 0.114 | [3] -0.043 | [4] 0.03 | [5] 0
